Hit rate of the full screen: of about 400,000 compounds, about 13,000 (3.2%) were called active. Inconclusive means that the source gave no clear call. Such entries were picked first, then a sample of the others. Calls follow the shape of the dose curve; as a rule, active = well fitted cell-killing curve with a large enough effect; inconclusive = small, poorly fitted or top-dose-only effect, or effect the other way; inactive = flat fitted curve, though single readings scatter. Potencies of inconclusive entries are doubtful fits and often do not repeat.
Experiment: qHTS assay for MDR1-selective chemotherapeutics: Primary screen using the drug-selected MDR subline cells KB-V1; also: nearly all actives have a fitted effect of over 60% in size
Conditions: KB-V1 MDR cells viability, CellTiter-Glo, 72 h; activity change, negative = cytotoxicity: at 46.1 µM (top of the series)
Summary of the method: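 Potencies derive from concentration-effect curves fitted to normalized luminescence (CellTiter-Glo) of KB-V1 cells treated for 72 h at 37 degrees C in phenol-red-free DMEM containing 10% FBS.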
% is scaled to controls: 0 for no effect and ±100 for the full control effect; potency is read from the fitted curve at half-maximal effect.

| SMILES | Potency | activity change, negative = cytotoxicity |
| --- | --- | --- |
| CCOC(CNCc1cc(C)c2[nH]c3ccccc3c2c1C)OCC | inconclusive: 25.9 µM [cytotoxic, single point] | – |
| CCn1c(=O)c(C(=O)CN2c3ccccc3CC2C)c(N)n(Cc2ccccc2)c1=O (stereo unspecified) | inconclusive: 14.6 µM [cytotoxic, partial curve] | – |
| COc1ccc(-n2c(CCC(=O)O)ccc2-c2ccc(F)cc2)c(OC)c1 | inconclusive: 29.1 µM [rising, single point] | – |
| Cc1ccc(CNC(=O)c2cn(C3CCCCC3)c(=O)c3c2c2ccccc2n3C)o1 | inconclusive: 29.1 µM [cytotoxic, single point] | – |
| CC1(C)C2CCC(C2)C1(C)NC(=O)CN1CCN(Cc2ccccc2)CC1 (stereo unspecified) | inconclusive: 18.4 µM [cytotoxic, single point] | – |
| COC(=O)c1c(C(=O)OC)c(-c2ccc(Cl)cc2)n2c1CS(=O)(=O)C2 | inconclusive: 16.4 µM [cytotoxic, single point] | – |
| Cc1cccc(S(=O)(=O)Nc2cccc3c2C(=O)c2ccccc2-3)c1 | inactive | – |
| O=C(c1ccc(Br)c(S(=O)(=O)N2CCCCC2)c1)N1CCCCC1 | inconclusive: 8.2 µM [cytotoxic, partial curve] | – |
| C/C(=N\NS(=O)(=O)c1ccc(Cl)cc1)c1ccc(NC(=O)c2ccco2)cc1 | inconclusive: 29.1 µM [cytotoxic, partial curve, poor fit] | – |
| CS(=O)(=O)N1N=C(c2ccc(Br)cc2)CC1c1ccc2c(c1)OCO2 (stereo unspecified) | active: 16.4 µM | – |
| CCS(=O)c1ccccc1C(=O)OCC(=O)N1CCC(c2ccccc2)=N1 (stereo unspecified) | inconclusive: 20.6 µM [cytotoxic, single point] | – |
| COc1ccc(CCC(C)NCC(C)c2ccccc2)cc1 (stereo unspecified) | inconclusive: 2.31 µM [cytotoxic, full curve, poor fit] | – |
| CC(CN1CCC(n2nccc2NC(=O)CCCc2ccccc2)CC1)c1ccccc1 (stereo unspecified) | inactive | – |
| Cc1c(O)c(C)c2c(c1O)C(=O)C[C@@H](c1ccccc1)O2 | inconclusive: 29.1 µM [cytotoxic, single point] | – |
| COC(=O)c1ccc(CSc2nc3c(c(=O)n2-c2ccc(C)cc2)SCC3)o1 | inconclusive: 29.1 µM [cytotoxic, single point] | – |
| Nc1ccc(C=Cc2ccc(N)cc2)cc1 | inactive | – |
| O=C1CCN(CCc2ccccc2)CCN1CCSc1ccccc1 | inconclusive: 13 µM [cytotoxic, partial curve] | – |
| O=C(COc1ccccc1Cl)NCCCNC(=O)c1cccnc1 | inactive | – |
| Cc1coc2cc3oc(=O)c4c(c3cc12)CCCC4 | inconclusive: 8.2 µM [cytotoxic, partial curve] | – |
| Cc1ccc(NC(=O)Cn2ccc([N+](=O)[O-])n2)cc1Cl | inconclusive: 0.146 µM [rising, full curve] | – |
| O=C(CCN1CCc2ccccc2C1)Nc1ccc(F)cc1 | inactive | – |
| O=C(NCc1ccc2c(c1)OCO2)c1ccc(C2SCC(=O)N2Cc2ccco2)cc1 (stereo unspecified) | active: 20.6 µM | – |
| Cn1c(-c2c(N)n(CCCc3ccccc3)c3nc4ccccc4nc23)nc2ccccc21 | active: 9.2 µM | – |
| CCOc1ccc(-c2nc(CN3CCCCC3CCn3cccn3)c(C)o2)cc1 (stereo unspecified) | inconclusive: 6.51 µM [cytotoxic, partial curve, poor fit] | – |

| SMILES | Potency | activity change, negative = cytotoxicity |
| --- | --- | --- |
| COc1ccc(N(C(=O)CNC(=O)c2ccco2)C(C(=O)NC2CCCC2)c2ccco2)cc1 (stereo unspecified) | inactive | – |
| CCSc1nc(=S)n(Cc2ccccc2)c(C)c1C(C)=O | inconclusive: 14.6 µM [cytotoxic, partial curve] | – |
| COCCNC(=O)c1c(C)cc(C)cc1C | inactive | – |
| CCOC(=O)Nc1sc(C)nc1-c1ccccc1 | inconclusive: 0.0073 µM [cytotoxic, full curve] | – |
| COc1ccc(C(=O)CC(=O)C(=O)Nc2ccccc2)cc1 | inactive | – |
| Cc1ccc(C)c(CC(=O)N2CCCCC2c2cc(C(=O)Nc3cccc(C#N)c3)no2)c1 (stereo unspecified) | inactive | – |
| CC1CCCC(NC(=O)CSC2=Nc3ccccc3C3CC=NN23)C1C (stereo unspecified) | inconclusive: 13 µM [cytotoxic, single point] | – |
| Cc1ccc(OC(C)C(=O)Nc2ncc(Cl)cc2Cl)c([N+](=O)[O-])n1 (stereo unspecified) | inconclusive: 1.64 µM [cytotoxic, full curve] | – |
| O=C(NNC(=O)C1CCN(S(=O)(=O)c2ccccc2C(F)(F)F)CC1)c1ccccc1O | inconclusive: 29.1 µM [cytotoxic, single point] | – |
| CCNC(=O)Nc1cc(OC)c(OC)cc1C(=O)O | inconclusive: 6.51 µM [rising, full curve] | – |
| CCc1ccc(/C=N/NC(=O)c2cc(C3CC3)nc3ccccc23)s1 | active: 5.17 µM | – |
| CNC(=O)CCN(Cc1ccco1)S(=O)(=O)c1ccc(OC)c(OC)c1 | inconclusive: 20.6 µM [rising, single point] | – |
| CCOC(=O)c1c(C)[nH]c(C)c1S(=O)(=O)NC1CCN(C(=O)OCC)CC1 | inconclusive: 10.3 µM [rising, partial curve, poor fit] | – |
| CC1CC(C)CN(C(=O)COC(=O)Cc2ccc(Br)cc2)C1 (stereo unspecified) | inconclusive: 29.1 µM [rising, single point] | – |
| CCOC(=O)c1cccnc1SC(CC)C(=O)NCc1ccco1 (stereo unspecified) | inconclusive: 35.5 µM [cytotoxic, single point] | – |
| COc1ccc(N2CCN(C(=O)c3ccccc3F)CC2)c([N+](=O)[O-])c1 | inconclusive: 4.11 µM [cytotoxic, full curve] | – |
| CC(=O)Nc1ccc(N2CCCCC2)c(C(=O)Nc2cccc(C)c2)c1 | active: 7.31 µM | – |
| CCOc1cc(CNCCc2ccc(S(N)(=O)=O)cc2)ccc1OCc1ccccc1 | inconclusive: 29.1 µM [cytotoxic, partial curve, poor fit] | – |
| Cc1ccc(C)c(N2CCN(C(=O)c3cc4cc5ccc(C)cc5nc4o3)CC2)c1 | inactive | – |
| CC1CCN(S(=O)(=O)c2ccc3nc(NCc4ccc(N(C)C)cc4)ccc3c2)CC1 | inconclusive: 23.1 µM [cytotoxic, single point] | – |
| CN(CCNC(=O)C1CC(=O)N(C2CCCC2)C1)Cc1ccccc1 (stereo unspecified) | inconclusive: 3.26 µM [rising, partial curve, poor fit] | – |
| CCC(C)NCCOCCOc1ccccc1-c1ccccc1 (stereo unspecified) | inactive | – |
| C/C(=N\NC(=O)CCCNc1ccc(C)cc1)c1ccccn1 | active: 6.51 µM | – |
| CCCCCn1c(N)c(-c2nc3ccccc3o2)c2c([N+](=O)[O-])nn(CC)c(=O)c21 | inconclusive: 2.06 µM [cytotoxic, full curve, poor fit] | – |

| SMILES | Potency | activity change, negative = cytotoxicity |
| --- | --- | --- |
| CC(C)C[C@@H]1NC(=O)[C@H](CO)NC(=O)c2cc([N+](=O)[O-])cc(I)c2OCC[C@@H](C(N)=O)NC1=O | inconclusive: 0.0065 µM [rising, full curve] | – |
| CCOC(=O)Cc1nnc(NC(=O)CSc2ccccc2)s1 | inconclusive: 29.1 µM [rising, single point] | – |
| Cc1cc(C)nc(NN=C(c2ccccc2)c2ccccc2)n1 | inactive | – |
| O=C(CCl)N1CCN(S(=O)(=O)c2ccc3c(c2)OCCCO3)CC1 | inactive | – |
| CCN(Cc1ccccc1)C(c1ccccn1)c1nnnn1C1CCCCC1 (stereo unspecified) | inconclusive: 9.2 µM [cytotoxic, partial curve] | – |
| Cc1cccc(CN2CCC(n3nccc3NC(=O)CCCc3ccccc3)CC2)c1 | inconclusive: 6.51 µM [cytotoxic, full curve, poor fit] | – |
| Nc1ccc(NC(=O)CCN2CCOCC2)cc1 | inconclusive: 20.6 µM [rising, single point] | – |
| Cc1cc(/C=C2\SC(=Nc3ccc(F)cc3)NC2=O)c(C)n1-c1ccc(S(N)(=O)=O)cc1 | inactive | – |
| COC(=O)c1ccccc1C(=O)N1CCCC(CNC(=O)c2ccc(F)cc2)C1 (stereo unspecified) | – | inconclusive: -15.6% |
| CCOc1ccc(S(=O)(=O)N2CCN=C2c2ccccc2)c(C)c1C | inconclusive: 29.1 µM [cytotoxic, single point] | – |
| O=C(NCCCN1CCCC1=O)c1cc(-c2ccc(F)cc2)nc2ccccc12 | inconclusive: 25.9 µM [cytotoxic, partial curve, poor fit] | – |
| CCCCCCNc1ccc(/C=C/c2ccnc3ccccc23)cc1 | inconclusive: 29.1 µM [cytotoxic, single point] | – |
| CC(=O)N[C@@H](Cc1c[nH]c2ccccc12)C(=O)OCC(=O)Nc1cc(C)on1 | inactive | – |
| Cc1c(Br)c([N+](=O)[O-])nn1C(C)C(=O)Nc1nccs1 (stereo unspecified) | inconclusive: 29.1 µM [cytotoxic, single point] | – |
| COc1cccc(C(=O)NNC(=O)C(=O)Nc2ccc(C)cc2)c1 | – | inconclusive: 31.7% |
| [O-]/C(=C(\C(=S)Nc1ccc(Cl)cc1)[n+]1ccccc1)c1ccc(OC(F)F)cc1 | inactive | – |
| Cc1cc(Nc2cccc(Cl)n2)n(-c2ccccc2)n1 | inconclusive: 18.4 µM [cytotoxic, single point] | – |
| Cc1ccccc1Cn1c2ccccc2c2cnn(CC(=O)NC3CCCCCC3)c(=O)c21 | inactive | – |
| O=C(C/C=N/OCc1c(Cl)cccc1Cl)c1cnc(-c2ccccc2)s1 | inactive | – |
| COc1ccc(S(=O)(=O)N(CC(=O)N/N=C/c2cccs2)c2ccc(C)cc2)cc1OC | inactive | – |
| O=C(O)c1ccc(NC(=O)c2cc3c([nH]c2=O)CCCC3=O)cc1 | inconclusive: 18.4 µM [rising, single point] | – |
| Cc1ccc(-c2nnc(SCC(=O)NC3CCCc4ccccc43)n2N)cc1 (stereo unspecified) | inconclusive: 29.1 µM [cytotoxic, single point] | – |
| CCOC(=O)c1sc2ncn(CC(=O)Nc3ccc(OC)c(Cl)c3)c(=O)c2c1C | inactive | – |

Source: PubChem BioAssay AID1347076 (National Center for Advancing Translational Sciences (NCATS), 2019)
